# Reference: patent US11903387B2 (priority 2016, dated 2024)
# Where “and” joins values, the source holds several entries; their conditions need not be identical. Equal values may be shown once. Read-outs that look alike come from different tables or passages of the source. At least one read-out could not be matched to a standard name with certainty.
# How the values were obtained:
# [1] = test system: Pseudoperonospora cubensis; assay: Test 2: control effect against cucumber downy mildew; assay type: in vivo; conditions: for Test 2 preventive value, Measured: applied alone
# [2] = test system: Phytophthora infestans; assay type: in vivo; conditions: for Test 1 preventive value, Measured: applied alone
smiles,measurement,setting,value
"Cc1cc(C(F)(F)F)nn1CC(=O)N1CCC(c2nc(C3OCc4cccc(OS(C)(=O)=O)c4CO3)cs2)CC1 (centres unmarked) [Compound 1-6, 4-[4-(6-methylsulfonyloxy-1,5-dihydro-3H-2,4-benzodioxepin-3-yl)-2-thiazolyl]-1-[2-[5-methyl-3-(trifluoromethyl)-1H-pyrazol-1-yl]acetyl]piperidine]",Test 2 Measured,[1]; Compound alone 0.3 ppm,99 and 96.5
same,"Test 2 preventive value, Measured",[1]; 0.06 ppm,38.8
same,"Test 2 preventive value, Measured",[1]; 0.3 ppm,98.5
same,Test 1 Measured preventive value,[2]; Compound alone 0.06 ppm,41.7 and 68.3
same,Test 1 Measured,[2]; Compound alone 0.3 ppm,99.8 and 97 and 99
same,Test 1 Measured preventive value,[2]; Compound alone 0.3 ppm,98.7
same,"Test 1 preventive value, Measured",[2]; 0.06 ppm,71.7
same,"Test 1 preventive value, Measured",[2]; 0.3 ppm,99.7
"Cc1cc(C(F)(F)F)nn1CC(=O)N1CCC(c2nc(C3OCc4c(F)ccc(OS(C)(=O)=O)c4CO3)cs2)CC1 (centres unmarked) [Compound 1-8, 4-[4-(6-fluoro-9-methylsulfonyloxy-1,5-dihydro-3H-2,4-benzodioxepin-3-yl)-2-thiazolyl]-1-[2-[5-methyl-3-(trifluoromethyl)-1H-pyrazol-1-yl]acetyl]piperidine]",Test 2 Measured,[1]; Compound alone 0.06 ppm,98.3 and 97 and 98
same,Test 1 Measured,[2]; Compound alone 0.06 ppm,97.7 and 97 and 95.7
same,Test 1 Measured preventive value,[2]; Compound alone 0.06 ppm,96.3 and 96.2
same,Test 1 Measured preventive value,"[2]; Compound alone, 0.012 ppm",21.7 and 26.7
same,"Test 1 preventive value, Measured",[2]; 0.012 ppm,41.7
same,"Test 1 preventive value, Measured",[2]; 0.06 ppm,95.5
